Laboratory results taken from patent US20170137513A1.
Results are given in words; binding and its absence hold for the method and conditions named. Some results given as binding are weak or reduced against the parent protein; the word gives no strength.

Protein sequences, listed by entry. Tags and fused reporters are not part of them. Residues count along the entry.
UniProt P20273, residues 20-847: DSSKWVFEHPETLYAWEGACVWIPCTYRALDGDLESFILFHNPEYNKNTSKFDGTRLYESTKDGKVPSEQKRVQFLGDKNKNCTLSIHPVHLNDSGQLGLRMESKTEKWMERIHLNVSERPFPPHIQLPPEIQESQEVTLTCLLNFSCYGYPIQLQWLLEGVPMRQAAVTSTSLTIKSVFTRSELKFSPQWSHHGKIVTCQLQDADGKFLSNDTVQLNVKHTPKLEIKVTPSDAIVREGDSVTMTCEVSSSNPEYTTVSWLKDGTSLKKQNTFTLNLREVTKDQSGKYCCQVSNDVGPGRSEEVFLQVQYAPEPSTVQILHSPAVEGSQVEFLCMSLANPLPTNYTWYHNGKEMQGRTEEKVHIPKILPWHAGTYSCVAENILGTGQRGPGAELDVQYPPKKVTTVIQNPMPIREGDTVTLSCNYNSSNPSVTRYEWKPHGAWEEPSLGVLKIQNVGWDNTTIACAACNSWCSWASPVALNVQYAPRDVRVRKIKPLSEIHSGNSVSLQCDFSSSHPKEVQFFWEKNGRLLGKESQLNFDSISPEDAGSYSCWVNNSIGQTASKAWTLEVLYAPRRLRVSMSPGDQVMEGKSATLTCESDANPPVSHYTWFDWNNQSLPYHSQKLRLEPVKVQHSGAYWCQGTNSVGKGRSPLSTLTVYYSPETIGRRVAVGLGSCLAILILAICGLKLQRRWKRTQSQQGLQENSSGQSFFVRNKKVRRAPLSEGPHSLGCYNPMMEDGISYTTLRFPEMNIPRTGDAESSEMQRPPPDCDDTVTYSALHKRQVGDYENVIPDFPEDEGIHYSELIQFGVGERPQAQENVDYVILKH

Biological target: human CD22 (human) (UniProt P20273)
Assay: flow cytometry, direct immunofluorescence on normal human PBMC

B1: RFB4 monoclonal antibody (antibody, V domains shown)
VH: EVQLVESGGGLVKPGGSLKLSCAASGFAFSIYDMSWVRQTPEKRLEWVAYISSGGGTTYYPDTVKGRFTISRDNAKNTLYLQMSSLKSEDTAMYYCARHSGYGSSYGVLFAYWGQGTLVTVSA
VL: DIQMTQTTSSLSASLGDRVTISCRASQDISNYLNWYQQKPDGTVKLLIYYTSILHSGVPSRFSGSGSGTDYSLTISNLEQEDFATYFCQQGNTLPWTFGGGTKLEIK
  binding: binds
